Experimental data taken from the supplement of paper PMC7125110.
± gives the standard error. The uncertainty is large for many entries.

B1: glmS ribozyme (parent)
chain: AUAAAAGCGCCAGAACUACAGAAAUGUAGUUGACGAGGAGGAGGUUUAUCGAAUUUUCGGCGGAUGCCUCCAAA

Variants of: B1
Experiment: kcat; higher = faster cleavage; RNA array
Conditions: with glucosamine-6-phosphate
Outline: (§1)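 Sequenced MiSeq chips were the platform: E. coli RNA polymerase transcribed barcoded ribozyme variants on them in situ, and a hybridised Cy3 probe tracked these at 37 °C. After glucosamine-6-phosphate (40 μM to 10 mM) in HEPES/KCl/Mg(OAc)2 buffer was flowed in, tiles were imaged over ~14 h. Signals normalised to baseline and to non-cleaving reference variants were reduced to per-tile medians and fit to one- or two-exponential decays to obtain kobs. kcat and KM were derived through weighted Michaelis–Menten fits across concentrations.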

Row | Variant | kcat
1 | U54G C61G | 1.78e-05 ± 5.8e-06 s⁻¹
2 | G41C C67U C70A | 5.68e-05 ± 1.2e-05 s⁻¹
3 | U54G C71U | 0.0983 ± 0.071 s⁻¹
4 | U49C C70A | < 1e-05 s⁻¹
5 | U56G U65A | 0.00479 ± 0.0029 s⁻¹
6 | A42G A48U | 0.00077 ± 0.00015 s⁻¹
7 | A53U U65A | 0.005 ± 0.0043 s⁻¹
8 | A64U C70A | 1.14e-05 ± 6.6e-06 s⁻¹
9 | U47A U55A | 0.00879 ± 0.0045 s⁻¹
10 | U47A U55G | 0.0201 ± 0.01 s⁻¹
11 | A42G A64G C71G | 0.00118 ± 0.001 s⁻¹
12 | U56A G59A C68A | 2.07e-05 ± 1.1e-05 s⁻¹
13 | G40A U47G | 0.00264 ± 0.0015 s⁻¹
14 | U56G G63A | 1.25e-05 ± 9.3e-06 s⁻¹
15 | U45C A53U U69C | 0.00154 ± 0.00089 s⁻¹
16 | C67U C68U C71G | 3.63e-05 ± 2.4e-05 s⁻¹
17 | G51U C70A | 2.43e-05 ± 1.5e-05 s⁻¹
18 | G63U C68A | 1.22e-05 ± 2.6e-06 s⁻¹

Row | Variant | kcat
19 | U46G A48G | 7.99e-05 ± 1e-06 s⁻¹
20 | C50G U55A | 4.09e-05 ± 2.9e-05 s⁻¹
21 | U47G U57G | 6.2e-05 ± 9.2e-06 s⁻¹
22 | U54A U55C | 0.00725 ± 0.0046 s⁻¹
23 | U46G A53U | 0.006 ± 0.0013 s⁻¹
24 | U45G G66C | 0.00999 ± 0.0066 s⁻¹
25 | G40U U45C | 0.000451 ± 0.00023 s⁻¹
26 | A48U C71A | 0.000129 ± 1.2e-05 s⁻¹
27 | A42C U69A | 0.000329 ± 0.00019 s⁻¹
28 | U46A G66A | 0.000792 ± 5.9e-05 s⁻¹
29 | U54C C71G | 0.00083 ± 0.00027 s⁻¹
30 | U54C C71A | 0.00379 ± 0.00088 s⁻¹
31 | G40U U49G | 8.53e-05 ± 3.1e-05 s⁻¹
32 | A39U C70U | 0.00771 ± 0.0044 s⁻¹
33 | G41A A64G | 0.00209 ± 0.00064 s⁻¹
34 | U56G U69C | 0.00124 ± 0.0008 s⁻¹
35 | U47A U54C | 0.0296 ± 0.024 s⁻¹

Variants of: B1
Experiment: KM; higher = weaker cofactor use; RNA array
Conditions: with glucosamine-6-phosphate
Outline: as §1

Row | Variant | KM
36 | A12C G44A A53U | 4570 ± 530 µM
37 | G41C C67U C70A | 9730 ± 3700 µM
38 | A6C A39C | 2080 ± 1200 µM
39 | U54G C71U | 6240 ± 5100 µM
40 | A6U A15G U30C | 2730 ± 1400 µM
41 | A6G U55A C68G | 55.6 ± 52 µM
42 | U56G U65A | 9160 ± 8200 µM
43 | A42G A48U | 3220 ± 1100 µM
44 | A6U U54A | 1270 ± 830 µM
45 | A12U A15C | 246 ± 180 µM
46 | A12U A15G | 534 ± 290 µM
47 | C11G A33U U54G C67A C71U | 232 ± 220 µM
48 | G9A A12U | 12500 ± 1300 µM
49 | G9A A12G | 91.6 ± 72 µM
50 | C11U G32U | 34800 ± 20000 µM
51 | C11A A12G G13A A15C C16U U17A A18C C19A A20G G21A | 197 ± 200 µM
52 | U47A U55A | 701 ± 480 µM
53 | U47A U55G | 2570 ± 1800 µM
54 | G40A U47G | 3210 ± 2600 µM
55 | A12C U45C | 7280 ± 3000 µM
56 | U45C A53U U69C | 2200 ± 1600 µM
57 | C11U G66A U69A | 278 ± 200 µM
58 | A6C U56A | 2410 ± 2300 µM
59 | A12U A33C | 7810 ± 2600 µM
60 | A12G U69A | 669 ± 570 µM
61 | C10U U56G | 839 ± 660 µM

Row | Variant | KM
62 | U46G A48G | 1250 ± 69 µM
63 | C11A U30A C50U | 121 ± 99 µM
64 | A12C C71U | 2270 ± 1200 µM
65 | G7U G37C | 232 ± 120 µM
66 | U54A U55C | 281 ± 270 µM
67 | U46G A53U | 2190 ± 770 µM
68 | U45G G66C | 17700 ± 16000 µM
69 | A12C C34A | 389 ± 270 µM
70 | G9A U45A | 1260 ± 770 µM
71 | C11A U49A | 15.3 ± 9.8 µM
72 | C10U A33U | 690 ± 480 µM
73 | A12C C58U | 6360 ± 1200 µM
74 | G9A G13U | 36.7 ± 31 µM
75 | A48U C71A | 1380 ± 540 µM
76 | U46A G66A | 2830 ± 440 µM
77 | U54C C71G | 1320 ± 990 µM
78 | U54C C71A | 1580 ± 530 µM
79 | G7A U45A | 1050 ± 660 µM
80 | C10G A15U | 26 ± 19 µM
81 | C10G G60U | 12800 ± 5700 µM
82 | A39U C70U | 384 ± 290 µM
83 | G41A A64G | 5950 ± 2800 µM
84 | C11U G41A | 952 ± 500 µM
85 | U56G U69C | 469 ± 450 µM
86 | G9U C11A | 159 ± 62 µM
87 | U47A U54C | 2860 ± 2700 µM

Reprinted at random: 6 entries already listed.
Row | Variant | KM
56 | U45C A53U U69C | 2200 ± 1600 µM
77 | U54C C71G | 1320 ± 990 µM
44 | A6U U54A | 1270 ± 830 µM
51 | C11A A12G G13A A15C C16U U17A A18C C19A A20G G21A | 197 ± 200 µM
82 | A39U C70U | 384 ± 290 µM
71 | C11A U49A | 15.3 ± 9.8 µM

Variants of: B1
Experiment: self-cleavage kobs at 160 uM GlcN6P; higher = faster cleavage; RNA array
Conditions: with glucosamine-6-phosphate
Outline: as §1

Row | Variant | self-cleavage kobs at 160 uM GlcN6P
88 | A6U A15G U30C | 2.59e-05 ± 1.9e-05 s⁻¹
89 | A42G A64G C71G | 3.57e-05 ± 2e-05 s⁻¹
90 | G51U C70A | 1.71e-05 ± 1.5e-05 s⁻¹
91 | U46A G66A | 4.24e-05 ± 2.5e-05 s⁻¹

Variants of: B1
Experiment: self-cleavage kobs at 10000 uM GlcN6P; higher = faster cleavage; RNA array
Conditions: with glucosamine-6-phosphate
Outline: as §1

Row | Variant | self-cleavage kobs at 10000 uM GlcN6P
92 | A6G U55A C68G | 2.36e-05 ± 2e-05 s⁻¹
93 | C50G U55A | 2.01e-05 ± 1.8e-05 s⁻¹
94 | U47A U54C | 0.0222 ± 0.018 s⁻¹

Variants of: B1
Experiment: self-cleavage kobs at 2500 uM GlcN6P; higher = faster cleavage; RNA array
Conditions: with glucosamine-6-phosphate
Outline: as §1

Row | Variant | self-cleavage kobs at 2500 uM GlcN6P
95 | C11U G32U | 1.17e-05 ± 9.5e-06 s⁻¹
96 | A6C U56A | 1.58e-05 ± 1.5e-05 s⁻¹
97 | G7A U45A | 2.42e-05 ± 2.1e-05 s⁻¹

Variants of: B1
Experiment: self-cleavage kobs at 640 uM GlcN6P; higher = faster cleavage; RNA array
Conditions: with glucosamine-6-phosphate
Outline: as §1

Row | Variant | self-cleavage kobs at 640 uM GlcN6P
98 | U46G A48G | 2.63e-05 ± 1.6e-05 s⁻¹
99 | C50G U55A | 2.6e-05 ± 1.9e-05 s⁻¹
100 | A48U C71A | 3.02e-05 ± 2.1e-05 s⁻¹
101 | G41A A64G | 0.000127 ± 6.4e-05 s⁻¹

Variants of: B1
Experiment: self-cleavage kobs at 40 uM GlcN6P; higher = faster cleavage; RNA array
Conditions: with glucosamine-6-phosphate
Outline: as §1

Row | Variant | self-cleavage kobs at 40 uM GlcN6P
102 | C50G U55A | 2.16e-05 ± 2.1e-05 s⁻¹
103 | U45G G66C | 3.82e-05 ± 2.3e-05 s⁻¹
104 | A42C U69A | 2.42e-05 ± 1.6e-05 s⁻¹
105 | U54C C71G | 2.07e-05 ± 1.4e-05 s⁻¹
